Measurements taken from PubChem BioAssay AID504834 (National Center for Advancing Translational Sciences (NCATS), 2011).
Hit rate of the full screen: of about 320,000 compounds, about 22,000 (6.9%) were called active. Inconclusive results, whose numbers are uncertain, are shown with a selection of clear calls. Calls come from the whole dose curve; as a rule, active = well fitted inhibition curve with a large enough effect; inconclusive = small, poorly fitted or top-dose-only effect, or another doubt; inactive = no such curve, though single readings can be large or run the other way. A potency beside an inconclusive call is a rough fit, not a confirmed value.

Assay: Primary qHTS for delayed death inhibitors of the malarial parasite plastid, 96 hour incubation
Details: P. falciparum luciferase reporter growth; series mostly up to 28.7 µM; activity change, negative = inhibition: at the top concentration
Summary of the method: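 96 h incubation, 37 C, 5% CO2, of luciferase-reporter P. falciparum-infected RBCs (2% hematocrit, 0.05% parasitemia final) with test compounds; endpoint luminescence.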
% is set by controls: 0 for no effect and ±100 for the full control effect; potency is the fitted concentration of half-maximal effect.

SMILES	Potency	activity change, negative = inhibition
COc1ccc(C(=O)NC(=S)N(C)C2CCCCC2)cc1Br	active: 3.7 µM	–
COC(=O)C1=C(c2cccc(C#N)c2)C[C@@H]2CC[C@H]1N2C(=O)N1CCOCC1	–	inactive: 14.2%
Cc1nn(Cc2ccccc2Cl)c(Cl)c1/C=C/C(=O)OCC(=O)NC1CCS(=O)(=O)C1 (stereo not given)	–	inactive: 11.5%
Cc1cc(N2C(=O)C3C4C=CC(C4)C3C2=O)ccc1Br (stereo not given)	active: 11.7 µM	–
COc1ccc(CC(=O)Nc2nc(-c3ccncc3)cs2)cc1	active: 13.1 µM	–
Clc1ccccc1CN1CCNCC1	active: 8.28 µM	–
CC(NC(=O)c1cc([N+](=O)[O-])cc([N+](=O)[O-])c1)C1CC2CCC1C2 (stereo not given)	inconclusive: 2.62 µM [inhibitor, full curve]	–
O=C(COC(=O)c1ccc[nH]c1=O)Nc1ccc(S(=O)(=O)N2CCCC2)cc1	–	inactive: 0%
COc1cc2c(cc1NC(=O)c1cc(-c3cccnc3)nc3ccc(C)cc13)oc1ccccc12	inconclusive: 8.28 µM [inhibitor, partial curve]	–
CC1CC(C)CN(CCCNC(=O)CN2C(=O)CSc3ccc(S(=O)(=O)N4CCCCC4)cc32)C1 (stereo not given)	–	inactive: 9.39%
Oc1cccc2c(-c3nn[nH]n3)ccnc12	inconclusive: 18.5 µM [inhibitor, single point]	–
Fc1ccc(Cl)cc1/C=N/n1cnnc1SCc1ccccc1	inconclusive: 9.28 µM [inhibitor, single point]	–
Cc1cc(C)nc(NC(=O)c2ccc(OC(C)C)cc2)n1	inconclusive: 11.7 µM [inhibitor, single point]	–
COc1ccc2ccccc2c1-c1csc(N)n1	inconclusive: 2.94 µM [inhibitor, partial curve]	–
COc1ccc(-n2c(C)c(C(C)=O)c(C(C)=O)c2C)cc1OC	–	inactive: 4.07%
COc1ccc(CNC(=O)c2cnc3cc(C)ccn3c2=O)cc1	inconclusive: 18.5 µM [inhibitor, single point]	–
CC(C)(C)c1cc(NC(=O)Nc2ccc(Br)cc2Cl)no1	active: 13.1 µM	–
CCC(C)NC(=O)c1ccc2c(SCC(=O)O)c3c(nc2c1)CCCC3 (stereo not given)	inconclusive: 1.31 µM [inhibitor, partial curve, poor fit]	–
CCN(CC)C(=O)N1CCN(C(=O)c2ccc(C)cn2)CC1	active: 11.7 µM	–
CCCC/C(O)=C/c1nc2ccccc2[nH]c1=O	–	inactive: -4.79%
COc1ccc(N2CC(NC(=O)N3CCN(C(=O)c4ccco4)CC3)CC2=O)cc1OC (stereo not given)	–	inactive: 25.8%
CC(C)(C)NC(=O)CSc1nc(N)c(NC(=O)c2ccccc2F)c(=O)[nH]1	inconclusive: 1.31 µM [inhibitor, partial curve]	–
O=c1c(/C=N/N2CCOCC2)c(C(F)(F)F)[nH]n1-c1ccccc1	–	inactive: 39.7%
Cc1ccc(CN(C)C(=O)c2ccccc2Oc2ccccc2)o1	inconclusive: 18.5 µM [inhibitor, single point]	–
COc1ccc(C2=NN(CN3C(=O)C(=O)c4ccccc43)C(c3ccc(OC)cc3)C2)cc1 (stereo not given)	inconclusive: 13.1 µM [inhibitor, partial curve]	–

SMILES	Potency	activity change, negative = inhibition
CC/C(=N/Nc1ccccc1C)c1cnnc(SC)n1	active: 2.33 µM	–
Cc1oc(-c2ccccc2)nc1CN1C(=O)C(C)N=C(c2ccccc2F)c2cc(Cl)ccc21 (stereo not given)	active: 2.33 µM	–
COc1ccc(/C=C/C(=O)c2ccc3c4c(cccc24)CC3)cc1	inconclusive: 18.5 µM [inhibitor, single point]	–
CC(C)OCCCN1CN(S(=O)(=O)c2cccs2)c2nc3ccccc3nc21	–	inactive: 5.82%
COc1ccc(NC(=S)N(CCc2c(C)[nH]c3ccc(C)cc23)Cc2ccco2)cc1	inconclusive: 18.5 µM [inhibitor, single point]	–
CCOC(=O)c1cc(OC(=O)c2cccnc2)n(-c2ccccc2)n1	–	inactive: 30.9%
CC(C)Cc1nnc(NC(=O)CCC(=O)Nc2ccc3cn[nH]c3c2)s1	–	inactive: 107%
O=C(COc1ccc2c(c1)CCC2)Nc1ccccn1	–	inactive: -95.2%
C=CCc1ccc(OCCOc2cccc3ccc(C)nc23)c(OC)c1	inconclusive: 5.86 µM [inhibitor, partial curve, poor fit]	–
O=[N+]([O-])c1ccc2nc(-c3ccccc3)[nH]c2c1	inconclusive: 10.4 µM [inhibitor, partial curve]	–
CCn1cc(C(=O)N2CCN(c3ccccn3)CC2)c(=O)c2cc(S(=O)(=O)N3CCC(C)CC3)ccc21	inconclusive: 0.104 µM [inhibitor, full curve, poor fit]	–
CC(=O)C1=C(O)C(=O)N(Cc2ccco2)C1c1ccccc1F (stereo not given)	inconclusive: 11.7 µM [inhibitor, partial curve, poor fit]	–
O=C(NC(=S)Nc1ccc(Br)cc1)C1CCC1	inconclusive: 18.5 µM [inhibitor, single point]	–
Cc1cc(C)c2c3c(sc2n1)C(=O)N(Cc1ccccc1)CC(=O)N3	inconclusive: 20.8 µM [inhibitor, single point]	–
Cc1ccc2c(CC(=O)NC3CCS(=O)(=O)C3)coc2c1C (stereo not given)	inconclusive: 18.5 µM [inhibitor, single point]	–
CCCCCCC(=O)Oc1cccc(N2C(=O)C3CCCCC3C2=O)c1 (stereo not given)	inconclusive: 1.65 µM [inhibitor, full curve]	–
CC(=O)c1cccc(NC(=O)CCS(=O)(=O)c2ccc(Br)s2)c1	–	inactive: 63.4%
COc1ccc(CCNC(=O)CCNC(=O)c2ccc(Cl)cc2)cc1OC	inconclusive: 11.7 µM [inhibitor, single point]	–
CCc1nc(N2CCCCC2C)c2oc3ccccc3c2n1 (stereo not given)	inconclusive: 16.5 µM [inhibitor, single point]	–
COc1ccc(CCNC(=O)C/C(C)=N/NC(=O)c2ccc(N)cc2)cc1OC	inconclusive: 11.7 µM [inhibitor, single point]	–
O=C(CSc1nnc(-c2cccnc2)o1)Nc1cccc(F)c1	–	inactive: 159%
C=CCn1c(SCC(=O)N2CCCC2)nc2cc(C(=O)NCC3CCCO3)ccc2c1=O (stereo not given)	inconclusive: 0.586 µM [inhibitor, full curve, poor fit]	–
O=C(NCCCn1ccnc1)c1ccc(Cl)c(Cl)c1	–	inactive: 0.778%
COc1ccc(OC)c(NC(=O)NCc2cccnc2)c1	inconclusive: 18.5 µM [inhibitor, single point]	–
COc1ccccc1C(c1c(N)n(C)c(=O)n(C)c1=O)C(C)[N+](=O)[O-] (stereo not given)	–	inactive: -4%

SMILES	Potency	activity change, negative = inhibition
Cc1[nH]c2ccc(C(=O)N3CCCC3)cc2c1C	–	inactive: 1.22%
Cc1cccc(N2CCN(C(=O)c3c(Cl)cnn3C)CC2)c1C	–	inactive: 3.26%
C(=N\Nc1nc(-c2ccccc2)cs1)/c1cccs1	inconclusive: 18.5 µM [inhibitor, single point]	–
O=C(CCS(=O)(=O)c1cccc2nonc12)N1CCCc2ccccc21	inconclusive: 0.0657 µM [inhibitor, full curve, poor fit]	–
Cc1cc(Nc2ccc(F)c(F)c2)nc(-c2ccccc2O)n1	inconclusive: 14.7 µM [inhibitor, single point]	–
COc1ccc2cc(/C=C3\SC(=S)NC3=O)c(N3CCOCC3)nc2c1	inconclusive: 0.0026 µM [inhibitor, full curve, poor fit]	–
COc1ccc(-c2sc(Nc3ccccc3)n[n+]2-c2ccc(F)cc2)cc1Br	active: 7.38 µM	–
C=CCNC(=S)N1CCC(C(=O)c2ccc(C)cc2)CC1	–	inactive: 16%
COCCn1c(SCC(=O)Nc2nc(C)cs2)nnc1C(C)C	–	inactive: 33.8%
CCOC(=O)c1c(-c2ccc(OC)cc2)csc1NC(=O)CSc1ncnc2sccc12	active: 5.22 µM	–
COc1ccc(N2CCN(C3CCCN(C(=O)CN4CCCC4=O)C3)CC2)cc1 (stereo not given)	inconclusive: 7.38 µM [inhibitor, partial curve, poor fit]	–
CCN(CC)S(=O)(=O)c1ccc(N2CCCCC2)c(NC(=O)C2=COCCO2)c1	active: 1.47 µM	–
COc1ccc(-c2csc(N3N=C(C)C(C)C3=O)n2)cc1 (stereo not given)	active: 11.7 µM	–
O=S(=O)(c1ccc(Nc2ccc(-c3ccc4c(c3)OCCO4)nn2)cc1)N1CCCC1	inconclusive: 9.28 µM [inhibitor, partial curve, poor fit]	–
CN(Cc1ccccc1)Cc1nc2scc(-c3ccccc3)c2c(=O)[nH]1	inconclusive: 9.28 µM [inhibitor, partial curve, poor fit]	–
Cc1cc[n+](CC(=O)c2cccc([N+](=O)[O-])c2)c2ccccc12	inconclusive: 14.7 µM [inhibitor, single point]	–
N#CC1=C(N)OC2=C(C(=O)CCC2)C1c1cccs1 (stereo not given)	inconclusive: 10.4 µM [inhibitor, partial curve, poor fit]	–
COc1ccc(/C=C/C(=O)c2ccc3c(c2)OCO3)c(OC)c1	–	inactive: 194%
O=c1cc(-c2ccc(O)cc2)oc2cc(O)c(C3OC(CO)C(O)C(O)C3O)c(O)c12 (stereo not given)	inconclusive: 2.94 µM [inhibitor, full curve, poor fit]	–
CC[n+]1ccc(C[n+]2ccccc2)c2ccccc21	–	inactive: -21.8%
O=C(COc1nc2ccccc2nc1N1CCOCC1)Nc1cccc(S(=O)(=O)N2CCCCC2)c1	inconclusive: 14.7 µM [inhibitor, single point]	–
Cc1ccc(CNS(=O)(=O)c2ccc(-n3cnnn3)c(C)c2)cc1	inconclusive: 20.8 µM [inhibitor, single point]	–
CCOc1cc(CNCCO)cc(Br)c1OCc1ccccc1Cl	active: 11.7 µM	–
Cc1nc2c(n1C1CCCCC1)C(=O)c1ccccc1C2=O	active: 1.31 µM	–
O=C(NCCO)/C(=C/c1ccc2c(c1)OCO2)NC(=O)c1ccc(Br)cc1	–	inactive: -17.7%

Entries of single compounds from above:
`Cc1nc2c(n1C1CCCCC1)C(=O)c1ccccc1C2=O` is entered as Potency: active: 1.31 µM
`CC(NC(=O)c1cc([N+](=O)[O-])cc([N+](=O)[O-])c1)C1CC2CCC1C2` (stereo not given) is entered as Potency: inconclusive: 2.62 µM [inhibitor, full curve]
`CC1CC(C)CN(CCCNC(=O)CN2C(=O)CSc3ccc(S(=O)(=O)N4CCCCC4)cc32)C1` (stereo not given) is entered as activity change, negative = inhibition: inactive: 9.39%
